Experimental data taken from patent US20210008162A1 (OP T, published 2021).
These are yes or no findings as the source states them, for the method shown. Some entries that bind do so weakly or less than the wild type.

The chains behind the UniProt entries cited, without tags or fusion partners. Where a name states a change or a piece, a line headed by the entry shows the natural chain unless it says otherwise. Residues count along the entry.
UniProt P25942: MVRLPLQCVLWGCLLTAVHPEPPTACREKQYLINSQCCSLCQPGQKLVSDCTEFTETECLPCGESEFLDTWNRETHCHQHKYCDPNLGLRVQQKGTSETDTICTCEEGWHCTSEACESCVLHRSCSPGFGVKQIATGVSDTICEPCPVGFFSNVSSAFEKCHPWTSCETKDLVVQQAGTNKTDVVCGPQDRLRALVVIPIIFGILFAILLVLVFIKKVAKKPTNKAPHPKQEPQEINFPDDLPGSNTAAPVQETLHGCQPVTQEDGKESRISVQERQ
UniProt P27512, residues 20-289: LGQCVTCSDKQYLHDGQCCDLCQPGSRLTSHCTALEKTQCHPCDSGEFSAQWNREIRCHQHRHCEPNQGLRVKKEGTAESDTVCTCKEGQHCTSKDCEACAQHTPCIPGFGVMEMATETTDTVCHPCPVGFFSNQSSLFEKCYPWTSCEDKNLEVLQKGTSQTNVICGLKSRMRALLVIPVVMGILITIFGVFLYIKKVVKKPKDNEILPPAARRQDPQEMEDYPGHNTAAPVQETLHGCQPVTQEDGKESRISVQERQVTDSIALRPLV

How the values were obtained:
[1] = molecular target: dog CD40 on CD4+CD40+ peripheral blood mononuclear cells; test: flow cytometry; PBMC of a known diabetic dog stained with CD3, CD4, CD40 and the peptide; right panel gated on the CD4+CD40+ quadrant (65.2) of the left panel; CD3 (y axis) versus AKKGYY (x axis)
[2] = molecular target: CD40 on blood cells of type-I diabetic and non-diabetic subjects (Example 4) (Homo sapiens (Human)) (UniProt P25942); test: whole blood cells with biotin-conjugated peptide, HRP-avidin, absorbance at 405 nm
[3] = molecular target: CD40 on blood cells of type-I diabetic and non-diabetic subjects (Example 4) (Homo sapiens (Human)) (UniProt P25942); test: whole blood incubated with biotin-conjugated 15-mer peptide, HRP-avidin, absorbance at 405 nm; sheet title 'ELISA measuring CD40 in blood samples'
[4] = molecular target: mouse CD40 on cells (CD40+ T cells / Th40 cells and B cells of NOD mice; mouse CD4+CD40+ cells in culture) (mouse) (UniProt P27512); test: flow cytometry, FITC-labeled peptide on NOD mouse lymphocytes

## AKKGYY
[1]
  binding: binds

## VLQWAKKGYYTMKSN (biotin conjugate (position not given)) [biotin-conjugated 15-mer peptide]
[2]
  binding: binds
[3]
  binding: binds

## VLQWAKKGYYTMKSN (FITC label (position not given)) [FITC-labeled 15-mer peptide from CD154]
[4]
  binding: binds
